Source: publication PMC11153576
Results are given in words; binding and its absence hold for the method and conditions named. For some assays here: In cells and extracts the contact can be indirect. Some binding calls cover weakened binding; strength is not graded here. Blank lines part the entries; values can stand above or below the molecule they belong to.

Protein sequences, listed by entry. Tags and fused reporters are not part of them.
UniProt P45983: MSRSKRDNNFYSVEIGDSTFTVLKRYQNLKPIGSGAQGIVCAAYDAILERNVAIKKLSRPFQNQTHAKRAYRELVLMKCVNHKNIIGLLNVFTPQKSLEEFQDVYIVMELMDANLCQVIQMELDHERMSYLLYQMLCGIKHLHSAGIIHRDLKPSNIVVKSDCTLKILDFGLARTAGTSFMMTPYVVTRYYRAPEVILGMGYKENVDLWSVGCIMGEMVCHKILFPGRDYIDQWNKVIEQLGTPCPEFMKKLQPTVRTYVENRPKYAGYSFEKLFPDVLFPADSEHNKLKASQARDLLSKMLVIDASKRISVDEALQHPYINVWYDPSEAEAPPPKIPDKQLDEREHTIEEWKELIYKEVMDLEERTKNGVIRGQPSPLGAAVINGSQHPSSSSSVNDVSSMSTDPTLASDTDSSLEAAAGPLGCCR

What was measured:
[1] = target: T1, Forkhead Box Q1 (FOXQ1) (UniProt Q9C009); experiment: co-IP; cell lysates (50 mM Tris-HCl pH 7.5, 0.5% NP-40, 150 mM NaCl, 2 mM EDTA), antibody on protein A or G agarose, 4 °C, western blot; PLC/PRF/5 and SK-Hep1 cells also treated with DMSO or sorafenib (10 μM) for 24 h
T1 sequence: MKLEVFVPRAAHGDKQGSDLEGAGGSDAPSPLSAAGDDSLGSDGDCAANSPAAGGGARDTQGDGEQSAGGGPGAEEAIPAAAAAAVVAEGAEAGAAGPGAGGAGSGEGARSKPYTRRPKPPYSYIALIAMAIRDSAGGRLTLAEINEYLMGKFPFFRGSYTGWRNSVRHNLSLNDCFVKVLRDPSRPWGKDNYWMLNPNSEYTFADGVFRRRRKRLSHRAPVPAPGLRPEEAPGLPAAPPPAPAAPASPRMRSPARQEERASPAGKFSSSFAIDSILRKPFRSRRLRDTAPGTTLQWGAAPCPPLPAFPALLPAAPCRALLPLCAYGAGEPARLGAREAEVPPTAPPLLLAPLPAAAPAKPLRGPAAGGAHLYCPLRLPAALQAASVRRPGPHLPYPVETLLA

[2] = target: T2, Forkhead Box Q1 (FOXQ1), Q9C009; experiment: native gel or EMSA; native polyacrylamide gel electrophoresis (native-PAGE) of FOXQ1 after sorafenib treatment of cells; methods not shown; details: remark: other sources report otherwise
T2 chain: T1 sequence

binding [1]: binds
Molecule: JNK1 (from UniProt P45983 1-427) (enzyme)

binding [2]: binds
B1: Forkhead Box Q1 (FOXQ1), Q9C009 1-403 (protein)
chain: T1 sequence
